From patent publication US20040106557A1
No constants are given. Whether binding was seen depends on the method and setting. Some results given as binding are weak or reduced against the parent protein; the word gives no strength.

Amino acid sequences for entries named in this document (tags omitted). Residues count along the entry.
UniProt P07288, residues 25-261: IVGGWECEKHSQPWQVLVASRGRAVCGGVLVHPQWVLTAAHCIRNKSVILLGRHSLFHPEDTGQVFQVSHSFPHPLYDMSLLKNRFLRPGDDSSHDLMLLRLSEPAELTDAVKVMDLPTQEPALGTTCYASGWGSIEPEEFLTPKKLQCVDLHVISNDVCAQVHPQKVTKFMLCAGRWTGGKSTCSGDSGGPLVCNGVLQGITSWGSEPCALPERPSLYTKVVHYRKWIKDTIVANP

Molecular target: Prostate specific antigen (PSA), purified from human seminal fluid (human) (UniProt P07288)
Assay: competition IFMA, PSA captured by anti-PSA MAb, competitor the corresponding GST-peptide

binding: binds
B1: chemically synthesized peptide A-1 (A-1-1, A-1 parent) (peptide)
peptide: CVFTSDYAFC
modifications: disulphide bridge Cys1-Cys10
